{"source": "PubChem BioAssay AID1259405 (NCATS, 2018)", "purpose": "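Mouse-designed siRNAs used to find CHO productivity engineering targets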 (primary screen)", "cell system": "Chinese hamster CHO-K1 ovary cells with stable secreted eGFP expression", "reagents": "single siRNA against mouse genes, 0.8 pmol siRNA per well (2 µl of 400 nM stock)", "time to read-out": "3 days", "detection": "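Percent of the per-plate non-targeting control median for intracellular GFP per well by laser scanning cytometry and for cell viability by ATP luminescence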", "reading the numbers": "GFP, % of control: higher = more GFP per well, higher productivity; viability (ATP), % of control: higher = more viable cells (more ATP)", "call rule": "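Called active when intracellular GFP, relative to negative control, is at or above 120%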", "note": "Here is a random part of about 50,000 reagents. Of all reagents, about 4,000 (8%) got an active call. 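Mouse siRNA library applied to hamster cells; one well for each siRNA.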"}
{"gene symbol": "Kcnh8", "PubChem SID": "SID363574845", "GFP, % of control": 92.3, "viability (ATP), % of control": 91.4, "activity call": "inactive"}
{"gene symbol": "Kcnh8", "PubChem SID": "SID363575901", "GFP, % of control": 76.9, "viability (ATP), % of control": 65.3, "activity call": "inactive"}
{"gene symbol": "Kcnh8", "PubChem SID": "SID363580477", "GFP, % of control": 96.5, "viability (ATP), % of control": 91.7, "activity call": "inactive"}
{"gene symbol": "Zfp516", "PubChem SID": "SID363573269", "GFP, % of control": 59.5, "viability (ATP), % of control": 60.6, "activity call": "inactive"}
{"gene symbol": "Zfp516", "PubChem SID": "SID363588508", "GFP, % of control": 89.2, "viability (ATP), % of control": 92.3, "activity call": "inactive"}
{"gene symbol": "Phf20", "PubChem SID": "SID363573427", "GFP, % of control": 50.4, "viability (ATP), % of control": 76.1, "activity call": "inactive"}
{"gene symbol": "Phf20", "PubChem SID": "SID363588666", "GFP, % of control": 67.7, "viability (ATP), % of control": 83.8, "activity call": "inactive"}
{"gene symbol": "Rb1cc1", "PubChem SID": "SID363554928", "GFP, % of control": 66.7, "viability (ATP), % of control": 66.2, "activity call": "inactive"}
{"gene symbol": "Rb1cc1", "PubChem SID": "SID363568375", "GFP, % of control": 117, "viability (ATP), % of control": 84.5, "activity call": "inactive"}
{"gene symbol": "Rb1cc1", "PubChem SID": "SID363586434", "GFP, % of control": 66.2, "viability (ATP), % of control": 80.9, "activity call": "inactive"}
{"gene symbol": "Psg23", "PubChem SID": "SID363555318", "GFP, % of control": 79.7, "viability (ATP), % of control": 45.6, "activity call": "inactive"}
{"gene symbol": "Psg23", "PubChem SID": "SID363563979", "GFP, % of control": 79.1, "viability (ATP), % of control": 72.5, "activity call": "inactive"}
{"gene symbol": "Psg23", "PubChem SID": "SID363587525", "GFP, % of control": 82.9, "viability (ATP), % of control": 89.3, "activity call": "inactive"}
{"gene symbol": "Rprm", "PubChem SID": "SID363554905", "GFP, % of control": 67.1, "viability (ATP), % of control": 64.4, "activity call": "inactive"}
{"gene symbol": "Rprm", "PubChem SID": "SID363568352", "GFP, % of control": 96, "viability (ATP), % of control": 87.9, "activity call": "inactive"}
{"gene symbol": "Rprm", "PubChem SID": "SID363586411", "GFP, % of control": 78.3, "viability (ATP), % of control": 72.5, "activity call": "inactive"}
